Measurements as given in patent US20120004457 (published 2012).

What was measured:
[1] = general procedure: Fmoc solid-phase peptide synthesis; Fmoc-Leu-CLEAR Acid resin; HBTU-HOBt/DIEA; DCC/HOBt; HATU/DIEA; conditions: whole synthesis, scale 0.017 mmol
[2] = general procedure: Fmoc solid-phase peptide synthesis; Fmoc-CLEAR-Amide resin; HBTU-HOBt/DIEA; DCC/HOBt; HATU/DIEA; conditions: whole synthesis, scale 0.2 mmol

Ser(CH2S—S-Bu^t)-Asn-Ala-Thr(GaINAcBn)-Lys-Lys-Pro-Tyr-Ile-Leu-OH
isolated mass [1]: 5.5 mg
isolated yield [1]: 21%

pGlu-Ser-Glu-Glu-Gly-Gly-SC6H4CH2COOH
isolated mass [2]: 4.3 mg
isolated yield [2]: 6%
